Some of the results follow.
Experiments:
Test in all cases: log2 fold change, soluble protein after heating vs DMSO (PISA); higher = thermal stabilisation; K562 cells, 10 uM, 30 min; active = over 0.2 and 3.5 SD of the protein, either way, in both replicates (recomputed)
saracatinib = compound: CN1CCN(CCOc2cc(OC3CCOCC3)c3c(Nc4c(Cl)ccc5c4OCO5)ncnc3c2)CC1 [saracatinib]
Procedure, shortened: (§1)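 Soluble protein was defined as the supernatant after 21,000xg for 90 min. It came from K562 cells at 2×10^6 cells/mL given 10 μM compound for 30 min, heated in aliquots for 3 min across 48°C-58°C, pooled, and extracted in PBS with 0.5% NP-40 at 4°C, and was quantified by TMTpro 16plex LC-MS/MS with equalised channel sums. Thermal stability against control samples, from duplicates, is reported as log2 fold change.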

Sequences of proteins named here, by UniProt entry; tags and fusion partners are left off. A change or cut given only in a name is not applied to a line headed by its entry.
UniProt Q9NV96: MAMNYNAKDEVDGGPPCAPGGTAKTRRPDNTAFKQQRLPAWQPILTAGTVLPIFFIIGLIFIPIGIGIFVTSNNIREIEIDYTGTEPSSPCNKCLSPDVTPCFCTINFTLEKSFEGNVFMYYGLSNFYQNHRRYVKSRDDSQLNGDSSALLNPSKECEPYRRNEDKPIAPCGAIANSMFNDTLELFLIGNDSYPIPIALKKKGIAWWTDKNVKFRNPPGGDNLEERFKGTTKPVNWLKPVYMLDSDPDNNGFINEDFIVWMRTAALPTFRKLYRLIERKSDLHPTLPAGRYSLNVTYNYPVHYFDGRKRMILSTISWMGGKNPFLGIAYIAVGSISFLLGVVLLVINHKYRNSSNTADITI
UniProt Q8TBQ9: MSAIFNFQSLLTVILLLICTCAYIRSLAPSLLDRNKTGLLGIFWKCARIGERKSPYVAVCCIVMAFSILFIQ
UniProt Q71RG4: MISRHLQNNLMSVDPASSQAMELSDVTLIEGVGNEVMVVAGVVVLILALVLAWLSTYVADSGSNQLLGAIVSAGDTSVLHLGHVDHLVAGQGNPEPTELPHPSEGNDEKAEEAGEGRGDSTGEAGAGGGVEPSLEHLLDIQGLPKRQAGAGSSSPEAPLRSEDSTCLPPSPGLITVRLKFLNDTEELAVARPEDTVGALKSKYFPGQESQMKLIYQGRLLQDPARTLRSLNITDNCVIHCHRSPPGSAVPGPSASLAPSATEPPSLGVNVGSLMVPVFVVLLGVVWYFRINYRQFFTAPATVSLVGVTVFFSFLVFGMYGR
UniProt P42167: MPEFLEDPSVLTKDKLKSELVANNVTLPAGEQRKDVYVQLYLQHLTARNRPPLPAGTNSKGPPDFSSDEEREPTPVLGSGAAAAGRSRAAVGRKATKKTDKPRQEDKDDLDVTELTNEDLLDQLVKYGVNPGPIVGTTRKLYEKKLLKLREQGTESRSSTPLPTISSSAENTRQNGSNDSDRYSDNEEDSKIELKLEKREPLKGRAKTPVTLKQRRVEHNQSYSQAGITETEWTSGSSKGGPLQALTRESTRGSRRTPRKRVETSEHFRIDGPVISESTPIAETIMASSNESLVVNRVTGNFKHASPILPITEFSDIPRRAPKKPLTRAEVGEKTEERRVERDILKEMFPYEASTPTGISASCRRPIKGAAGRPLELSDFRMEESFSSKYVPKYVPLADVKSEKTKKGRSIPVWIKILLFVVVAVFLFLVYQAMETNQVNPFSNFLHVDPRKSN
UniProt Q9NX00: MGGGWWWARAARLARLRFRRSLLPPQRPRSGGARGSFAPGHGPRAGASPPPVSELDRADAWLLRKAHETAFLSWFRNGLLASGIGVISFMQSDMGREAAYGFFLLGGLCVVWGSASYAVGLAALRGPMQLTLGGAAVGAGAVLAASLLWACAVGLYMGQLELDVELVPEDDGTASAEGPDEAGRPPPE
UniProt Q9H0R3: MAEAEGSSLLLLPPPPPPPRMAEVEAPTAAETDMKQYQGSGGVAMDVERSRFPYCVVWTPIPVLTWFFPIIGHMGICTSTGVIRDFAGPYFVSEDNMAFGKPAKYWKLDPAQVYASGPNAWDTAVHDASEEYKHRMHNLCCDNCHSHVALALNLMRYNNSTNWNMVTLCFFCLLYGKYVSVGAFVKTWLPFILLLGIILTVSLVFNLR
UniProt P42166: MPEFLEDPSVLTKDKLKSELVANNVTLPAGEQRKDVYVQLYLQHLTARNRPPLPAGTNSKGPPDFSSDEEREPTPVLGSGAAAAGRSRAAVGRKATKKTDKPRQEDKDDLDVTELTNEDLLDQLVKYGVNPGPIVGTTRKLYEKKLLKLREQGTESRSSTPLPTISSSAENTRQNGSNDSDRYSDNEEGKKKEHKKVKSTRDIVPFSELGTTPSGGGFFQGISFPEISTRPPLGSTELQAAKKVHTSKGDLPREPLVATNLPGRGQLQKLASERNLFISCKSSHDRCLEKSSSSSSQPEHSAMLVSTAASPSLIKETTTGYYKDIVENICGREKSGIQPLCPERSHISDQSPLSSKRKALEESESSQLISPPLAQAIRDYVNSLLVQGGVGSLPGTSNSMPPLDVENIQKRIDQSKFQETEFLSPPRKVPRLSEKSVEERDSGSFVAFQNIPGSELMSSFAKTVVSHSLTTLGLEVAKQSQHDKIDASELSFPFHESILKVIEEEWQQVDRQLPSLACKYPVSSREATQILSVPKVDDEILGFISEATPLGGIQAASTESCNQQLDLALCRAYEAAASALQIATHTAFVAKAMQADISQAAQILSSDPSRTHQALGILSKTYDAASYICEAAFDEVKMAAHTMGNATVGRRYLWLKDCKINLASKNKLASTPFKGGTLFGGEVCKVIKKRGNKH
UniProt Q0P6H9: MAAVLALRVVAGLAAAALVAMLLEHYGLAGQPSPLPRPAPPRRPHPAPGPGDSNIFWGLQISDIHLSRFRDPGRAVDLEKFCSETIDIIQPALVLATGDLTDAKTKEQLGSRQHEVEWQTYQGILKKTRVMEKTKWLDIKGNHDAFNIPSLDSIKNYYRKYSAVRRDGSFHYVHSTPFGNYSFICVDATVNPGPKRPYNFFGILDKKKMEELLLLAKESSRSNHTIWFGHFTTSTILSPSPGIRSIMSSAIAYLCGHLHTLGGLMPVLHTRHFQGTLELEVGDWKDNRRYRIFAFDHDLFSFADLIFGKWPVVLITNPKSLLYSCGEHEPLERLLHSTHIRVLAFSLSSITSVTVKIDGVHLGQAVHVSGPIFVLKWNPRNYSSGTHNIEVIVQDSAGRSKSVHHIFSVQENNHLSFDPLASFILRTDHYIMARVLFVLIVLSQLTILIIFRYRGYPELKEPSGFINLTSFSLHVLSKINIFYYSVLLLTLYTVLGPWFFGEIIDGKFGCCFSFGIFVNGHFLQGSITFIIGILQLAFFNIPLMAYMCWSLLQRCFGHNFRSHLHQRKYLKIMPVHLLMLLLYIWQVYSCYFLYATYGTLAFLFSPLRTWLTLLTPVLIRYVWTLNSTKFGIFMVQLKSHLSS
UniProt Q9Y2S6, whole entry, looked up: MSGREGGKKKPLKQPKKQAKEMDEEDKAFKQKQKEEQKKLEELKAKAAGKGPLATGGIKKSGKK
UniProt Q96SK2: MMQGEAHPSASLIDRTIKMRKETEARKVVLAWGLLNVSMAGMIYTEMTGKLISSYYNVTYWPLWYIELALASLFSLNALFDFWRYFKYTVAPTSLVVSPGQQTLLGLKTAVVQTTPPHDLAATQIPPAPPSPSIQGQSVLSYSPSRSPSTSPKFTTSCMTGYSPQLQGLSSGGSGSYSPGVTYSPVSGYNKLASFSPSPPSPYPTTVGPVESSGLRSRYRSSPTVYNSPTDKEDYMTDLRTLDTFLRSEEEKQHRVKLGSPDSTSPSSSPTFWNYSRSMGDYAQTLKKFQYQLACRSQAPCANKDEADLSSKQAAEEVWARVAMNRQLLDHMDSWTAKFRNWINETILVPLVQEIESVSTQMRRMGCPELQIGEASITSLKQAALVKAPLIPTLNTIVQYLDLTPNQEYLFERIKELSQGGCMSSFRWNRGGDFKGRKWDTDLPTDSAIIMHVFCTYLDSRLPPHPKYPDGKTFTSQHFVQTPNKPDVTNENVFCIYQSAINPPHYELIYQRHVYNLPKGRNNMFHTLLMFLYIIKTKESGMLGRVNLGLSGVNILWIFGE
UniProt Q8TDI8: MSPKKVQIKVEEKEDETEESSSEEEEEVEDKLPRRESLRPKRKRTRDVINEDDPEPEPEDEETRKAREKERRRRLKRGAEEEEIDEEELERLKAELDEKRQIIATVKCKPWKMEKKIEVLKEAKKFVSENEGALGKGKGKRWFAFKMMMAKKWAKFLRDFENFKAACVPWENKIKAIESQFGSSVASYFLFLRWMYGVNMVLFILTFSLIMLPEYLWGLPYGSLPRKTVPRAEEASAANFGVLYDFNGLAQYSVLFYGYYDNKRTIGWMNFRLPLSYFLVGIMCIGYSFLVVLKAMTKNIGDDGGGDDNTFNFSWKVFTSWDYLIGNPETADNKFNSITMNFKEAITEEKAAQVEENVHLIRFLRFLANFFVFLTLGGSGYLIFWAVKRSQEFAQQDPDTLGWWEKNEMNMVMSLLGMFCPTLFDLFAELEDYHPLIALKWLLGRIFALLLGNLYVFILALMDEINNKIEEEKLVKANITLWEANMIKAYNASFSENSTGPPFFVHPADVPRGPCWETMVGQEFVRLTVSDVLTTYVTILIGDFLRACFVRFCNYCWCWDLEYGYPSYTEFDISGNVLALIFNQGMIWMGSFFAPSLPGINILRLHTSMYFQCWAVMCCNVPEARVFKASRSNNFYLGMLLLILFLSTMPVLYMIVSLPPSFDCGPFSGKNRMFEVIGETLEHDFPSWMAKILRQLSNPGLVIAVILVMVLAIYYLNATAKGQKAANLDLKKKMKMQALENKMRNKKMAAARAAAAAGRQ
UniProt Q86UB9: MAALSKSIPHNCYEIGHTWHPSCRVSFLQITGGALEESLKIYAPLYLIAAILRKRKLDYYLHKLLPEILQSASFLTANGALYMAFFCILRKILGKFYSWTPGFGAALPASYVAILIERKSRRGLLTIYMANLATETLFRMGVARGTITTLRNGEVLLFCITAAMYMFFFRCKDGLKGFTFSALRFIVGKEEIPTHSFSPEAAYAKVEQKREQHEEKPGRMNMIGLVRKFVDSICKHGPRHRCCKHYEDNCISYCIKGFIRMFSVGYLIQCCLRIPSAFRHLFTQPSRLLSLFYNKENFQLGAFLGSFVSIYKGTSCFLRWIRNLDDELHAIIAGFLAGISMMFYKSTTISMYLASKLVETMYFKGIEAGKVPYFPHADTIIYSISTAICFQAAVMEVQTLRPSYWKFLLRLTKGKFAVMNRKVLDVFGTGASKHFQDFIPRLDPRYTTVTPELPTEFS
UniProt Q8N511: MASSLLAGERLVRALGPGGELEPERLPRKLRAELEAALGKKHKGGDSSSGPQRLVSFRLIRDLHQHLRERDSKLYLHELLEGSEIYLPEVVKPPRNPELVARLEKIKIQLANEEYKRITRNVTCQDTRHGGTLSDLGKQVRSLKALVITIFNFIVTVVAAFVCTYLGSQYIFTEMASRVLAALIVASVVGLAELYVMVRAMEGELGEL
UniProt Q9Y3Q3: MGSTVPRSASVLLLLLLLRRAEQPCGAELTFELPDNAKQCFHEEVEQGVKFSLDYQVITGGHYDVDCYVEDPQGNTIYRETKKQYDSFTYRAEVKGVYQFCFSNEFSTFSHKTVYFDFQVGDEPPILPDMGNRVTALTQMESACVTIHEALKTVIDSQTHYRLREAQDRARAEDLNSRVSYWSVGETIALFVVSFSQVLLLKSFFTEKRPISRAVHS
UniProt Q96MH6: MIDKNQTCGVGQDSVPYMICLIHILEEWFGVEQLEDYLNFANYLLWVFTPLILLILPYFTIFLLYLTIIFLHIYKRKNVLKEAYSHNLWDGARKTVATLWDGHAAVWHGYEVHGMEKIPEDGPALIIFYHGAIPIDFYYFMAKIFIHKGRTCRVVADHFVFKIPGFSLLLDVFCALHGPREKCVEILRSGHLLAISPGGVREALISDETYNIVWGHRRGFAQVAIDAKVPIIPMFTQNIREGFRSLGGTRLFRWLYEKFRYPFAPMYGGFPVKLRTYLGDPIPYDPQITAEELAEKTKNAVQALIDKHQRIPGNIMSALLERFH

sotrastaurin = compound: CN1CCN(c2nc(C3=C(c4c[nH]c5ccccc45)C(=O)NC3=O)c3ccccc3n2)CC1 [sotrastaurin]
Procedure, shortened: as §1

alvocidib = compound: CN1CC[C@H](c2c(O)cc(O)c3c(=O)cc(-c4ccccc4Cl)oc23)[C@H](O)C1 [alvocidib]
Procedure, shortened: as §1

Tubastatin A = compound: CN1CCc2c(c3ccccc3n2Cc2ccc(C(=O)NO)cc2)C1 [Tubastatin A]
Procedure, shortened: as §1

[1] = compound: CNC(=O)C1=CC=CC=C1NC2=NC(=NC=C2Cl)NC3=C(C=C(C=C3)N4CCOCC4)OC
Procedure, shortened: as §1

defactinib = compound: CNC(=O)c1ccc(Nc2ncc(C(F)(F)F)c(NCc3nccnc3N(C)S(C)(=O)=O)n2)cc1 [defactinib]
Procedure, shortened: as §1

rucaparib = compound: CNCc1ccc(-c2[nH]c3cc(F)cc4c3c2CCNC4=O)cc1 [rucaparib]
Procedure, shortened: as §1

[2] = compound: CNc1nc(-c2ccc3c(N)n[nH]c3c2)cc(N2C[C@@H](C(=O)NC3CCCCC3)CC[C@H]2C)n1
Procedure, shortened: as §1

encorafenib = compound: COC(=O)N[C@@H](C)CNc1nccc(-c2cn(C(C)C)nc2-c2cc(Cl)cc(NS(C)(=O)=O)c2F)n1 [encorafenib]
Procedure, shortened: as §1

[3] = compound: COC(=O)[C@H](CCSC)NC(=O)C1=C(C=C(C=C1)NC[C@H](CS)N)C2=CC=CC=C2
Procedure, shortened: as §1

[4] = compound: COC1=CC=C(C=C1)CN2C=CC3=C2C=C(C=C3)C(=O)NO
Procedure, shortened: as §1

filanesib = compound: CON(C)C(=O)N1N=C(c2cc(F)ccc2F)S[C@@]1(CCCN)c1ccccc1 [filanesib]
Procedure, shortened: as §1

zotarolimus = compound: CO[C@H]1C[C@@H]2CC[C@@H](C)[C@@](O)(O2)C(=O)C(=O)N2CCCC[C@H]2C(=O)O[C@H]([C@H](C)C[C@@H]2CC[C@H](n3cnnn3)[C@H](OC)C2)CC(=O)[C@H](C)/C=C(\C)[C@@H](O)[C@@H](OC)C(=O)[C@H](C)C[C@H](C)/C=C/C=C/C=C/1C [zotarolimus]
Procedure, shortened: as §1

idasanutlin = compound: COc1cc(C(=O)O)ccc1NC(=O)[C@@H]1N[C@@H](CC(C)(C)C)[C@](C#N)(c2ccc(Cl)cc2F)[C@H]1c1cccc(Cl)c1F [idasanutlin]
Procedure, shortened: as §1

alisertib = compound: COc1cc(Nc2ncc3c(n2)-c2ccc(Cl)cc2C(c2c(F)cccc2OC)=NC3)ccc1C(=O)O [alisertib]
Procedure, shortened: as §1

[5] = compound: COc1cc2nc(-c3cc(F)ccc3O)nc(N[C@@H]3CNC[C@H]3C(C)(C)O)c2cc1OC
Procedure, shortened: as §1

gefitinib = compound: COc1cc2ncnc(Nc3ccc(F)c(Cl)c3)c2cc1OCCCN1CCOCC1 [gefitinib]
Procedure, shortened: as §1

[6] = compound: COc1cccc2cc(-c3nc([C@H]4CC[C@H](C(=O)O)CC4)n4ncnc(N)c34)[nH]c12
Procedure, shortened: as §1

lapatinib = compound: CS(=O)(=O)CCNCc1ccc(-c2ccc3ncnc(Nc4ccc(OCc5cccc(F)c5)c(Cl)c4)c3c2)o1 [lapatinib]
Procedure, shortened: as §1

pictilisib = compound: CS(=O)(=O)N1CCN(Cc2cc3nc(-c4cccc5[nH]ncc45)nc(N4CCOCC4)c3s2)CC1 [pictilisib]
Procedure, shortened: as §1

Measured: log2 fold change

TMEM30A (UniProt Q9NV96)
inactive: saracatinib 0.043 | sotrastaurin 0.057 | alvocidib 0.01 | Tubastatin A -0.066 | [1] 0.017 | defactinib 0.034 | rucaparib -0.084 | [2] -0.005 | encorafenib -0.007 | [3] 0.045 | [4] -0.098 | filanesib 0.057 | zotarolimus -0.098 | idasanutlin 0.02 | alisertib -0.048 | [5] -0.093 | gefitinib -0.007 | [6] -0.009 | lapatinib -0.043 | pictilisib -0.031

TMEM167A (UniProt Q8TBQ9)
inactive: saracatinib 0.07 | sotrastaurin 0.011 | alvocidib -0.049 | Tubastatin A -0.044 | [1] 0.073 | defactinib -0.028 | rucaparib -0.044 | [2] -0.117 | encorafenib 0 | [3] 0.094 | [4] 0.068 | filanesib -0.051 | zotarolimus -0.022 | idasanutlin -0.023 | alisertib 0.098 | [5] -0.076 | gefitinib 0.035 | [6] -0.031 | lapatinib 0.021 | pictilisib 0.038

TMUB2 (UniProt Q71RG4)
inactive: saracatinib 0.147 | sotrastaurin -0.033 | alvocidib 0.065 | Tubastatin A -0.052 | [1] -0.03 | defactinib -0.032 | rucaparib 0.017 | [2] -0.013 | encorafenib 0.068 | [3] 0.031 | [4] 0.05 | filanesib -0.01 | zotarolimus -0.032 | idasanutlin 0.067 | alisertib 0.151 | [5] -0.039 | gefitinib 0.052 | [6] 0.122 | lapatinib 0.013 | pictilisib -0.042

TMPO (UniProt P42167)
inactive: saracatinib 0.011 | sotrastaurin 0.01 | alvocidib -0.047 | Tubastatin A 0.009 | [1] -0.003 | defactinib -0.005 | rucaparib -0.122 | [2] -0.019 | encorafenib 0.02 | [3] -0.014 | [4] -0.059 | filanesib -0.052 | zotarolimus -0.048 | idasanutlin -0.028 | alisertib 0.114 | [5] 0.019 | gefitinib 0.074 | [6] 0.015 | lapatinib -0.039 | pictilisib -0.054

TMEM160 (UniProt Q9NX00)
inactive: saracatinib 0.046 | sotrastaurin 0.051 | alvocidib 0.131 | Tubastatin A 0.017 | [1] -0.009 | defactinib -0.018 | rucaparib 0.181 | [2] 0.145 | encorafenib -0.012 | [3] -0.041 | [4] -0.231 | filanesib 0.102 | zotarolimus -0.062 | idasanutlin -0.047 | alisertib -0.119 | [5] -0.075 | gefitinib 0.007 | [6] -0.087 | lapatinib -0.01 | pictilisib 0.253

TMEM222 (UniProt Q9H0R3)
inactive: saracatinib -0.347 | sotrastaurin 0.083 | alvocidib -0.186 | Tubastatin A -0.05 | [1] 0.028 | defactinib -0.083 | rucaparib 0.048 | [2] 0.014 | encorafenib 0.015 | [3] 0.165 | [4] -0.016 | filanesib 0.062 | zotarolimus -0.198 | idasanutlin -0.036 | alisertib -0.013 | [5] -0.025 | gefitinib -0.026 | [6] 0.05 | lapatinib -0.09 | pictilisib -0.152

TMPO (UniProt P42166)
inactive: saracatinib 0.016 | sotrastaurin -0.009 | alvocidib -0.014 | Tubastatin A -0.021 | [1] -0.077 | defactinib -0.061 | rucaparib -0.04 | [2] -0.081 | encorafenib 0.021 | [3] 0.06 | [4] -0.002 | filanesib -0.077 | zotarolimus -0.066 | idasanutlin 0.183 | alisertib -0.076 | [5] 0.014 | gefitinib 0.028 | [6] 0.006 | lapatinib -0.081 | pictilisib -0.044

Two records picked at random from those above, as already listed:
TMEM160 (UniProt Q9NX00)
inactive: saracatinib 0.046 | sotrastaurin 0.051 | alvocidib 0.131 | Tubastatin A 0.017 | [1] -0.009 | defactinib -0.018 | rucaparib 0.181 | [2] 0.145 | encorafenib -0.012 | [3] -0.041 | [4] -0.231 | filanesib 0.102 | zotarolimus -0.062 | idasanutlin -0.047 | alisertib -0.119 | [5] -0.075 | gefitinib 0.007 | [6] -0.087 | lapatinib -0.01 | pictilisib 0.253

TMPO (UniProt P42167)
inactive: saracatinib 0.011 | sotrastaurin 0.01 | alvocidib -0.047 | Tubastatin A 0.009 | [1] -0.003 | defactinib -0.005 | rucaparib -0.122 | [2] -0.019 | encorafenib 0.02 | [3] -0.014 | [4] -0.059 | filanesib -0.052 | zotarolimus -0.048 | idasanutlin -0.028 | alisertib 0.114 | [5] 0.019 | gefitinib 0.074 | [6] 0.015 | lapatinib -0.039 | pictilisib -0.054

(listing goes on)

TMEM62 (UniProt Q0P6H9)
inactive: saracatinib 0.073 | sotrastaurin 0.048 | alvocidib -0.025 | Tubastatin A 0.039 | [1] -0.064 | defactinib 0.048 | rucaparib -0.096 | [2] 0.015 | encorafenib 0.047 | [3] 0.026 | [4] 0.02 | filanesib -0.016 | zotarolimus -0.144 | idasanutlin 0.036 | alisertib 0.18 | [5] -0.064 | gefitinib 0.034 | [6] 0.101 | lapatinib 0.115 | pictilisib 0.022

TMA7 (UniProt Q9Y2S6)
inactive: saracatinib -0.022 | sotrastaurin 0.003 | alvocidib 0.01 | Tubastatin A -0.006 | [1] -0.018 | defactinib -0.05 | rucaparib 0.035 | [2] -0.007 | encorafenib -0.069 | [3] -0.011 | [4] -0.001 | filanesib 0.03 | zotarolimus -0.046 | idasanutlin -0.009 | alisertib 0 | [5] 0.015 | gefitinib 0.042 | [6] 0.027 | lapatinib -0.131 | pictilisib -0.07

TMEM209 (UniProt Q96SK2)
inactive: saracatinib -0.008 | sotrastaurin -0.036 | alvocidib -0.075 | Tubastatin A 0.05 | [1] -0.077 | defactinib -0.022 | rucaparib -0.05 | [2] -0.026 | encorafenib 0.025 | [3] -0.069 | [4] -0.012 | filanesib 0.002 | zotarolimus 0.004 | idasanutlin -0.031 | alisertib -0.032 | [5] 0 | gefitinib -0.01 | [6] 0.009 | lapatinib -0.105 | pictilisib -0.005

TMC1 (UniProt Q8TDI8)
inactive: saracatinib 0.153 | sotrastaurin 0.04 | alvocidib 0.122 | Tubastatin A -0.013 | [1] 0.006 | defactinib 0.097 | rucaparib -0.394 | [2] 0.033 | encorafenib 0.189 | [3] -0.05 | [4] -0.348 | filanesib -0.146 | zotarolimus -0.042 | idasanutlin -0.345 | alisertib 0.143 | [5] -0.092 | gefitinib -0.046 | [6] 0.039 | lapatinib -0.011 | pictilisib 0.047

TMEM135 (UniProt Q86UB9)
inactive: saracatinib 0.101 | sotrastaurin 0.063 | alvocidib -0.072 | Tubastatin A 0.025 | [1] -0.041 | defactinib -0.018 | rucaparib -0.042 | [2] 0.017 | encorafenib 0.018 | [3] -0.093 | [4] -0.107 | filanesib -0.03 | zotarolimus 0.002 | idasanutlin 0.07 | alisertib 0.024 | [5] -0.015 | gefitinib -0.054 | [6] 0.042 | lapatinib 0.02 | pictilisib 0.048

TMEM199 (UniProt Q8N511)
inactive: saracatinib -0.009 | sotrastaurin 0.037 | alvocidib 0.094 | Tubastatin A -0.062 | [1] 0.092 | defactinib 0.029 | rucaparib -0.009 | [2] -0.038 | encorafenib -0.035 | [3] 0.063 | [4] -0.042 | filanesib -0.118 | zotarolimus -0.04 | idasanutlin -0.022 | alisertib -0.012 | [5] -0.025 | gefitinib 0.015 | [6] 0.045 | lapatinib 0.002 | pictilisib 0.084

TMEM245 (UniProt Q9H330)
inactive: saracatinib 0.049 | sotrastaurin 0.017 | alvocidib 0.021 | Tubastatin A -0.045 | [1] -0.017 | defactinib 0.017 | rucaparib -0.1 | [2] -0.063 | encorafenib -0.023 | [3] 0.057 | [4] -0.002 | filanesib -0.059 | zotarolimus -0.002 | idasanutlin -0.072 | alisertib -0.153 | [5] 0 | gefitinib 0.024 | [6] 0.066 | lapatinib 0.03 | pictilisib 0.06

TMED3 (UniProt Q9Y3Q3)
inactive: saracatinib -0.006 | sotrastaurin -0.019 | alvocidib -0.02 | Tubastatin A -0.026 | [1] 0.014 | defactinib -0.027 | rucaparib -0.075 | [2] -0.023 | encorafenib 0.035 | [3] 0.077 | [4] -0.142 | filanesib -0.128 | zotarolimus -0.028 | idasanutlin 0.013 | alisertib -0.074 | [5] 0.038 | gefitinib 0.144 | [6] 0 | lapatinib 0.044 | pictilisib 0.063

TMEM68 (UniProt Q96MH6)
inactive: saracatinib 0.121 | sotrastaurin 0.049 | alvocidib -0.014 | Tubastatin A -0.026 | [1] 0.005 | defactinib -0.031 | rucaparib -0.028 | [2] -0.014 | encorafenib 0.004 | [3] 0.046 | [4] 0.134 | filanesib -0.059 | zotarolimus -0.016 | idasanutlin -0.059 | alisertib -0.067 | [5] 0.001 | gefitinib 0 | [6] 0.06 | lapatinib 0.016 | pictilisib 0.07
